Values from PubChem BioAssay AID504804 (Drosophila RNAi Screening Center, 2011)

Assay: 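Fly genes whose loss lessens doxorubicin-driven cell death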 (primary screen)
Cells: Drosophila Kc cells
Knock-down reagent: long dsRNA against Drosophila genes, 0.5 µg dsRNA per well
Timing: 96 h (48 h knock-down, then 48 h drug)
Conditions: doxorubicin 5 µg/ml for 48 h, added 48 h after dsRNA
Detection: 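Luminescent ATP counts per replicate, not normalised, reflecting viable cells after 48 h dsRNA knock-down followed by 48 h of 5 µg/ml doxorubicin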
Direction: raw ATP luminescence: higher = more viable cells, protection from doxorubicin
Call rule: 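z-score of 2 or more over plate mean in both duplicates, retained only when retests and separate dsRNAs confirm the protection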
In all, the deposit lists about 19,000 reagents; below is a random part of those that have a named target and a result. Over the whole deposit, 47 (0.25%) are marked active. 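Signals are raw, not normalised; exact z-scores behind calls not deposited; actives needed confirmation, so some wells reaching 2 SD are inactive.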 The numbers tell different reagents against one gene apart.

| Target gene | reagent no. | raw ATP luminescence, replicate 1 | raw ATP luminescence, replicate 2 | outcome |
| --- | --- | --- | --- | --- |
| ReepB (Receptor expression enhancing protein B) | 1 | 68107 | 63170 | inactive |
| CG3634 | 1 | 63587 | 61693 | inactive |
| CG18628 | 1 | 81207 | 80807 | inactive |
| CG3939 | 1 | 53190 | 37930 | inactive |
| CG7368 | 1 | 78973 | 81937 | inactive |
| CG10324 | 1 | 65660 | 69190 | inactive |
| Svil (Supervillin) | 1 | 1.95e5 | 1.63e5 | inactive |
| Svil (Supervillin) | 2 | 67203 | 63500 | inactive |
| Sur (Sulfonylurea receptor) | 1 | 80883 | 63540 | inactive |
| Csk (C-terminal Src kinase) | 1 | 1.70e5 | 1.44e5 | inactive |
| Csk (C-terminal Src kinase) | 2 | 53413 | 21840 | inactive |
| GstE11 (Glutathione S transferase E11) | 1 | 71610 | 68020 | inactive |
| CG12581 | 1 | 25210 | 25220 | inactive |
| CG12581 | 2 | 54577 | 98513 | inactive |
| CG4502 | 1 | 1.07e5 | 52963 | inactive |
| CG14569 | 1 | 83847 | 61733 | inactive |
| crok (crooked) | 1 | 68703 | 62633 | inactive |
| CG11698 | 1 | 1.75e5 | 2.19e5 | inactive |
| fok (fledgling of Klp38B) | 1 | 47767 | 42607 | inactive |
| CG10384 | 1 | 79073 | 79913 | inactive |
| CG10384 | 2 | 28900 | 36310 | inactive |
| COX2 (retired record) | 1 | 3.49e5 | 2.82e5 | inactive |
| gcl (germ cell-less) | 1 | 66377 | 64077 | inactive |
| CG8003 | 1 | 34983 | 59903 | inactive |
| CG10311 | 1 | 74000 | 68820 | inactive |
| CG14687 | 1 | 60410 | 62820 | inactive |
| Pif2 (PFTAIRE-interacting factor 2) | 1 | 68690 | 66280 | inactive |
| CG4363 | 1 | 76333 | 65353 | inactive |
| Had1 (beta Hydroxy acid dehydrogenase 1) | 1 | 2.99e5 | 3.31e5 | inactive |
| Npc2e (Niemann-Pick type C-2e) | 1 | 62730 | 55373 | inactive |
| CG8677 | 1 | 61940 | 59307 | inactive |
| Vps39 (Vacuolar protein sorting 39) | 1 | 40867 | 35597 | inactive |
| CG11112 | 1 | 47017 | 80150 | inactive |

8 neighbouring entries already listed, quoted:
| Target gene | reagent no. | raw ATP luminescence, replicate 1 | raw ATP luminescence, replicate 2 | outcome |
| --- | --- | --- | --- | --- |
| Csk (C-terminal Src kinase) | 2 | 53413 | 21840 | inactive |
| GstE11 (Glutathione S transferase E11) | 1 | 71610 | 68020 | inactive |
| CG12581 | 1 | 25210 | 25220 | inactive |
| CG12581 | 2 | 54577 | 98513 | inactive |
| CG4502 | 1 | 1.07e5 | 52963 | inactive |
| CG14569 | 1 | 83847 | 61733 | inactive |
| crok (crooked) | 1 | 68703 | 62633 | inactive |
| CG11698 | 1 | 1.75e5 | 2.19e5 | inactive |

More reagents follow:
| Target gene | reagent no. | raw ATP luminescence, replicate 1 | raw ATP luminescence, replicate 2 | outcome |
| --- | --- | --- | --- | --- |
| lab (labial) | 1 | 53760 | 54993 | inactive |
| CG12811 | 1 | 48550 | 63067 | inactive |
| IP3K1 (Inositol 1,4,5-triphosphate kinase 1) | 1 | 70617 | 60050 | inactive |
| mei-P22 (meiotic P22) | 1 | 68020 | 75537 | inactive |
| Myt1 | 1 | 73787 | 91153 | inactive |
| CG6484 | 1 | 56203 | 57317 | inactive |
| Grl40a (Gustatory receptor-like 40a) | 1 | 1.06e5 | 75103 | inactive |
| CG13841 | 1 | 44310 | 46480 | inactive |
| CG15207 (retired record) | 1 | 3.42e5 | 3.96e5 | inactive |
| CG32107 | 1 | 71747 | 82833 | inactive |
| Rab7 | 1 | 35670 | 32163 | inactive |
| Ero1L (Endoplasmic reticulum oxidoreductin-1-like) | 1 | 39590 | 35730 | inactive |
| Sf3a2 (Splicing factor 3a subunit 2) | 1 | 28567 | 29110 | inactive |
| CG13630 | 1 | 42363 | 42840 | inactive |
| nsr (novel spermatogenesis regulator) | 1 | 76147 | 59097 | inactive |
| Rim2 (Replication in mitochondria 2) | 1 | 2.75e5 | 2.94e5 | inactive |
| Rim2 (Replication in mitochondria 2) | 2 | 1.23e5 | 84767 | inactive |
| CG13720 | 1 | 70217 | 79887 | inactive |
| CG18789 | 1 | 58403 | 91177 | inactive |
| Fbw5 (F-box and WD repeat domain containing 5) | 1 | 27773 | 29687 | inactive |
| Vha68-1 (Vacuolar H[+] ATPase 68kD subunit 1) | 1 | 55143 | 90517 | inactive |
| SCAP (SREBP cleavage activating protein) | 1 | 72180 | 46430 | inactive |
| SCAP (SREBP cleavage activating protein) | 2 | 62343 | 61973 | inactive |
| CG3500 | 1 | 47610 | 53647 | inactive |
